The text below walks through data of paper PMC7862700.

The chains behind the UniProt entries cited, without tags or fusion partners. Where a name states a change or a piece, a line headed by the entry shows the natural chain unless it says otherwise.
UniProt P32519: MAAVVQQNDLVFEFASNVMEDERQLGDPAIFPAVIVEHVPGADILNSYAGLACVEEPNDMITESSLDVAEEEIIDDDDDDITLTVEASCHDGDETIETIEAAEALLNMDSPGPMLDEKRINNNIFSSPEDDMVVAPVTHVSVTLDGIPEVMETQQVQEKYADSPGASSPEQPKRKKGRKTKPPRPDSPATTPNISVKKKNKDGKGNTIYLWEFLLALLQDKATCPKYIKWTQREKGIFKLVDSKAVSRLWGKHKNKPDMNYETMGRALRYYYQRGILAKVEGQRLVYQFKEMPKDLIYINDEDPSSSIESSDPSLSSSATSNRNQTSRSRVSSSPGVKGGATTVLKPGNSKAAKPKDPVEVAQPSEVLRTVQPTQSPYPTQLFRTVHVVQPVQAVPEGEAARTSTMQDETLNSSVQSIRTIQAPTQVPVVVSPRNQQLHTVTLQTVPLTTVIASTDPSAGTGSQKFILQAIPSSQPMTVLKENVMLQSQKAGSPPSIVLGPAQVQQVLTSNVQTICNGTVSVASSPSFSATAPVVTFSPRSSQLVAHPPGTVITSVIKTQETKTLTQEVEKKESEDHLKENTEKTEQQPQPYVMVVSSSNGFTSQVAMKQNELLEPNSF
UniProt P50549: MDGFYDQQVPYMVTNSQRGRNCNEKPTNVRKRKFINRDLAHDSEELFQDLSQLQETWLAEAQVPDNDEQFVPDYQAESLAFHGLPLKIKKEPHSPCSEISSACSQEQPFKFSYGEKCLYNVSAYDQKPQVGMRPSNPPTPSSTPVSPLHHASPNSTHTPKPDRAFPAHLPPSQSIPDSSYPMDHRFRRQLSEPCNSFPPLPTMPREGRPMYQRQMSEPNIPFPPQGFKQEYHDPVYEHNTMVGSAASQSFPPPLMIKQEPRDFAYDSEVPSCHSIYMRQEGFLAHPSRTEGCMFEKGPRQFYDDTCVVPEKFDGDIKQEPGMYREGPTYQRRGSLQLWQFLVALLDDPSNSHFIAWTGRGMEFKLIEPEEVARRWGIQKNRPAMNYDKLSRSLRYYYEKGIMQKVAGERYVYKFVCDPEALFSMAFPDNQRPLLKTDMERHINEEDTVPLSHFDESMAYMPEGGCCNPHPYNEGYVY

What all share (assay): DAPPL (digital affinity profiling via proximity ligation, sequencing)
What all share (conditions): 10 mM Tris-HCl pH 7.5, 50 mM NaCl, 1 mM DTT, 4% glycerol, room temperature, 30 min; GST-TFs on glutathione beads, 16-mer random dsDNA library, 0.1% …; high values mean tight binding; double strand, one strand shown; scale: fold enrichment (6-mer frequency, TF over GST control)

For one test, the target named is T1, ERG (UniProt P11308).
T1 sequence: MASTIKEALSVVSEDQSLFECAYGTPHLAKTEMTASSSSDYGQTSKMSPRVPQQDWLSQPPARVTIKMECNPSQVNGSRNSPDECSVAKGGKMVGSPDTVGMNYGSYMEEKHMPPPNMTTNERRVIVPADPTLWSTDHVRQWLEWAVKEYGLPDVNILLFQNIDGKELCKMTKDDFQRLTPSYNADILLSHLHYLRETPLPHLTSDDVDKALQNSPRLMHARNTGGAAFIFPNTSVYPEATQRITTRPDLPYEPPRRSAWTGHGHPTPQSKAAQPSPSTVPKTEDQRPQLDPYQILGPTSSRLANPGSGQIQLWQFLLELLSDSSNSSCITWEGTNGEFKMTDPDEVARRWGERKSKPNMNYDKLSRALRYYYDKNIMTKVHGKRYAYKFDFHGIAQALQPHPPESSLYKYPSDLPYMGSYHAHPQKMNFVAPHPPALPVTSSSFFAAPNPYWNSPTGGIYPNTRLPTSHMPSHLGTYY

A further test concerns the target ELF1 (UniProt P32519).
The target in the next test is T2, ELK4 (UniProt P28324-2).
T2 sequence: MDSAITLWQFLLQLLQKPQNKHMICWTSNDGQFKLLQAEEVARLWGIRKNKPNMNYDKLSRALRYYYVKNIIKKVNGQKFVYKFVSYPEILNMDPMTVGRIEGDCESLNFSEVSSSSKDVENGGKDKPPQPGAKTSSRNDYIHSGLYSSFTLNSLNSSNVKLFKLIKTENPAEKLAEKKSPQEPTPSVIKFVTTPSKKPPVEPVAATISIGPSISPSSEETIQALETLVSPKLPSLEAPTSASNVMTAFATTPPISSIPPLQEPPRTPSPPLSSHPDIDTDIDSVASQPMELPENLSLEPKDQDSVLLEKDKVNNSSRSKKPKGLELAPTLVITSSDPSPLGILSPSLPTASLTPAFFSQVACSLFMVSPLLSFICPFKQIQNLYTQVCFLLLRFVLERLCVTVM

The next test concerns the target T3, ETV4 (UniProt P43268).
T3 sequence: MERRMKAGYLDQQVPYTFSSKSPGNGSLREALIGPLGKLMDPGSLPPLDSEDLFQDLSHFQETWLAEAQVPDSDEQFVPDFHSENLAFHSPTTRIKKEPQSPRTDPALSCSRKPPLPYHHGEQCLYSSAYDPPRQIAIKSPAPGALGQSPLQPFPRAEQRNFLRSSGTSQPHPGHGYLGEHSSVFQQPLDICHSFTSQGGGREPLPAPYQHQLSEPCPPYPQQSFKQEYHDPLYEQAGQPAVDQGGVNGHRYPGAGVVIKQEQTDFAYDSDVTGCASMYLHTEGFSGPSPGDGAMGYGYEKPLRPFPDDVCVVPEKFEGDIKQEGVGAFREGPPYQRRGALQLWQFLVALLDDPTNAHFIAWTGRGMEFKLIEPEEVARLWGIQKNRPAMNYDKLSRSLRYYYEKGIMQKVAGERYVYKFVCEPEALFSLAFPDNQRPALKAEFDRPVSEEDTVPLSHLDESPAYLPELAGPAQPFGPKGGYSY

The target in the next test is ETV1 (UniProt P50549).
The target of the next test is T4, ERF (UniProt P50548).
T4 sequence: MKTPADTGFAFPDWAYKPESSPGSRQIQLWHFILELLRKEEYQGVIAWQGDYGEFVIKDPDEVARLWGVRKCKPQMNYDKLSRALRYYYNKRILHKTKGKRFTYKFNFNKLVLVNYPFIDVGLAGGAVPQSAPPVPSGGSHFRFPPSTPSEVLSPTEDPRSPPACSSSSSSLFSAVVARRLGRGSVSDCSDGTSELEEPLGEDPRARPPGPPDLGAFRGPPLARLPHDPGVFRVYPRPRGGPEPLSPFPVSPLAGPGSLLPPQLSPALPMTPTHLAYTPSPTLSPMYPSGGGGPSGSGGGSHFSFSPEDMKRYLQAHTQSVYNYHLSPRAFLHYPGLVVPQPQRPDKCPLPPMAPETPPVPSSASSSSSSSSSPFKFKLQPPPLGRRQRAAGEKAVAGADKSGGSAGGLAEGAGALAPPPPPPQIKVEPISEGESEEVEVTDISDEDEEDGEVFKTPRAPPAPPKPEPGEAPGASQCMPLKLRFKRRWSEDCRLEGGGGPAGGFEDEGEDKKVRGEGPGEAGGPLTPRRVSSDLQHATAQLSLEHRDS

The list shows a part of the results, in another mix than the full data. For part of these data: At the low end of the ranking the order means little. Some of the results follow. For part of these data: Construct or isoform of the protein are uncertain.

Consider ACGGGG, for which the binding signal was 0.672 with ERG; 0.672 with ELF1; 0.67 with ELK4; 0.72 with ETV4; 0.636 with ETV1; 0.719 in the test with ERF.
As for GATAGA, the binding signal in the test with ERG was 0.78; in the test with ELF1, 0.834; in the test with ELK4, 0.806; with ETV4 it was 0.809; with ETV1, 0.833; with ERF, 0.852.
CGTGCG: the binding signal with ERG was 0.636; in the test with ELF1, 0.638; in the test with ELK4 it was 0.646; with ETV4 it was 0.653; in the test with ETV1, 0.695; with ERF, 0.672.
Regarding CAGACC, the binding signal was 0.771 with ERG; 0.789 with ELF1; 0.773 with ELK4; 0.826 with ETV4; 0.862 with ETV1; 0.73 with ERF.
In the case of GACTGA, the binding signal was found to be 0.732 with ERG; 0.847 in the test with ELF1; 0.826 with ELK4; 0.843 with ETV4; 0.837 with ETV1; 0.809 in the test with ERF.
With TCGGAG, the binding signal with ERG is 0.2; in the test with ELF1, 0.204; in the test with ELK4, 0.195; in the test with ETV4, 0.185; in the test with ETV1 it was 0.184; with ERF, 0.196.
GGTTGA: the binding signal with ERG came out at 0.741; with ELF1, 0.786; with ELK4 it was 0.901; in the test with ETV4, 0.811; in the test with ETV1 it was 0.768; with ERF, 0.751.
Turning to GTGAAT, the binding signal with ERG is 0.842; with ELF1, 0.806; in the test with ELK4, 0.852; with ETV4 it was 0.761; with ETV1 it was 0.845; with ERF it was 0.766.
Take GCGTGG: the binding signal is 0.57 in the test with ERG; 0.518 in the test with ELF1; 0.627 with ELK4; 0.516 with ETV4; 0.558 in the test with ETV1; 0.548 in the test with ERF.
Take AGATAG: the binding signal with ERG stood at 0.803; with ELF1, 0.829; in the test with ELK4, 0.782; in the test with ETV4 it was 0.799; with ETV1, 0.923; in the test with ERF, 0.893.
Regarding GTGAGT, the binding signal is 0.14 with ERG; 0.114 with ELF1; 0.138 in the test with ELK4; 0.119 with ETV4; 0.136 with ETV1; 0.132 in the test with ERF.
Consider TCAGGA, for which the binding signal with ERG amounted to 0.887; with ELF1, 0.799; with ELK4, 0.8; in the test with ETV4, 0.802; in the test with ETV1, 0.849; in the test with ERF it was 0.724.
For CGCAGG, the binding signal with ERG was found to be 0.847; in the test with ELF1 it was 0.812; with ELK4, 0.912; with ETV4, 0.971; with ETV1, 0.917; in the test with ERF, 0.852.
In the case of GCATTG, the binding signal is 0.757 with ERG; 0.806 with ELF1; 0.828 with ELK4; 0.798 with ETV4; 0.847 with ETV1; 0.909 in the test with ERF.
As for ACTAGT, the binding signal is 0.919 in the test with ERG; 0.859 with ELF1; 0.83 with ELK4; 0.84 in the test with ETV4; 0.848 in the test with ETV1; 0.925 in the test with ERF.
AGGAGT: the binding signal with ERG was determined as 0.387; with ELF1 it was 0.356; in the test with ELK4, 0.422; in the test with ETV4 it was 0.346; with ETV1 it was 0.354; with ERF, 0.383.
On to TTCGGA, for which the binding signal in the test with ERG was 0.715; with ELF1, 0.767; with ELK4, 0.82; with ETV4 it was 0.746; with ETV1 it was 0.748; with ERF, 0.871.
Turning to GAGTGT, the binding signal with ERG was found to be 0.56; with ELF1 it was 0.574; with ELK4 it was 0.548; with ETV4, 0.534; in the test with ETV1 it was 0.474; in the test with ERF, 0.572.
Turning to GAGACA, the binding signal in the test with ERG was 0.387; with ELF1, 0.396; with ELK4, 0.41; with ETV4, 0.364; in the test with ETV1, 0.369; with ERF it was 0.388.
AGAGCG: the binding signal with ERG came to 0.436; with ELF1, 0.409; with ELK4, 0.426; in the test with ETV4 it was 0.433; with ETV1, 0.444; in the test with ERF, 0.436.
Regarding GCCAGC, the binding signal amounted to 0.769 with ERG; 0.758 with ELF1; 0.787 with ELK4; 0.772 with ETV4; 0.62 with ETV1; 0.733 in the test with ERF.
Turning to AGTCTA, the binding signal was 0.71 with ERG; 0.725 with ELF1; 0.723 with ELK4; 0.753 with ETV4; 0.763 with ETV1; 0.803 with ERF.
With CGAGTG, the binding signal worked out at 0.792 with ERG; 0.883 with ELF1; 0.948 with ELK4; 0.772 with ETV4; 0.889 with ETV1; 0.843 with ERF.
For the sequence AGGGGA, the binding signal in the test with ERG turned out to be 0.592; in the test with ELF1, 0.553; in the test with ELK4, 0.53; in the test with ETV4, 0.591; in the test with ETV1, 0.653; with ERF, 0.639.
Turning to CAGTGT, the binding signal with ERG is 0.681; with ELF1 it was 0.717; with ELK4, 0.72; in the test with ETV4 it was 0.708; with ETV1, 0.653; in the test with ERF, 0.766.
In the case of GGCCGT, the binding signal with ERG worked out at 0.433; with ELF1, 0.395; with ELK4, 0.438; with ETV4, 0.342; with ETV1, 0.38; with ERF, 0.377.
As to GAGAAG, the binding signal with ERG was determined as 0.663; with ELF1 it was 0.695; with ELK4 it was 0.679; in the test with ETV4, 0.726; with ETV1 it was 0.742; with ERF it was 0.725.
On to AGGGTC, for which the binding signal in the test with ERG was 0.87; with ELF1, 0.877; in the test with ELK4 it was 0.962; with ETV4 it was 0.866; with ETV1, 0.855; with ERF it was 0.936.
As for CCGGAG, the binding signal with ERG came to 0.573; with ELF1, 0.477; with ELK4, 0.549; with ETV4, 0.523; in the test with ETV1 it was 0.536; with ERF, 0.501.
For the sequence GGTCGT, the binding signal in the test with ERG is 0.616; with ELF1, 0.585; in the test with ELK4, 0.615; with ETV4 it was 0.572; with ETV1, 0.603; in the test with ERF, 0.593.
